Laboratory results reported in publication PMC3406032, “Tristetraprolin Inhibits Poly(A)-Tail Synthesis in Nuclear mRNA that Contains AU-Rich Elements by Interacting with Poly(A)-Binding Protein Nuclear 1” (PLoS ONE, 2012).

Tests used:
[1] = target: T1, WT GST-TTP (mouse) (UniProt P22893); experiment: EMSA; settings: REMSA as previously described (ref 54), 10 ng GST-TTP, 10- to 20-fold excess PABPN1 and/or PAP, native PAGE, recombinant protein, residues 2-319, protein details: N-terminal GST, label: 32P, probe letters rebuilt from the primers and the genome, part of a longer molecule
T1 sequence (looked up): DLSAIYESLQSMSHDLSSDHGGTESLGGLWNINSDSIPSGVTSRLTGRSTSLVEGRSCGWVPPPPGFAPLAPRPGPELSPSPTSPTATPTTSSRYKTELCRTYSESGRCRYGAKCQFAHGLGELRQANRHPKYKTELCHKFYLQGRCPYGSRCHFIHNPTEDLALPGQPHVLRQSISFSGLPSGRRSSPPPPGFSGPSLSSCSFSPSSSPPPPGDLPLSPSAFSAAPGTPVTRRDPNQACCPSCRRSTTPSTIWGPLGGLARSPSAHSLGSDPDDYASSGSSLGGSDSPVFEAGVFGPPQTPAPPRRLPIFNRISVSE

[2] = test system: WT GST-TTP + (His)6-PABPN1; experiment: EMSA supershift; settings: PABPN1 recruited by TTP, supershift with anti-TTP and anti-PABPN1; REMSA as previously described (ref 54); 10 ng GST-TTP, 10- to 20-fold excess PABPN1 and/or PAP, native PAGE; pH and temperature not given; recombinant protein; protein details: N-terminal GST,(His)6; label: 32P; probe letters rebuilt from the primers and the genome; part of a longer molecule
[3] = target: T2, (His)6-PABPN1 (mouse) (UniProt Q8CCS6); experiment: EMSA; settings: REMSA as previously described (ref 54), 10 ng GST-TTP, 10- to 20-fold excess PABPN1 and/or PAP, native PAGE, pH and temperature not given, recombinant protein, protein details: (His)6, label: 32P, probe letters rebuilt from the primers and the genome, part of a longer molecule
T2 sequence (looked up, limits assumed): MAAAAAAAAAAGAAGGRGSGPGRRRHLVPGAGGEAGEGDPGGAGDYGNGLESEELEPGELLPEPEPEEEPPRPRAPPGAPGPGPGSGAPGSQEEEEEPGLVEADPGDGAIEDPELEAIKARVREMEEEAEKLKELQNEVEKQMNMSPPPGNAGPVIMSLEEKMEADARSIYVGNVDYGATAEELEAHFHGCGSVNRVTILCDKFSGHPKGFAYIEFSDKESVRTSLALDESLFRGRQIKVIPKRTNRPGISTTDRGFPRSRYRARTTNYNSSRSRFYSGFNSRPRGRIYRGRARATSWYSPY

[4] = test system: WT GST-TTP + (His)6-PABPN1; experiment: EMSA; settings: TTP/PABPN1/RNA complex; REMSA as previously described (ref 54); 10 ng GST-TTP, 10- to 20-fold excess PABPN1 and/or PAP, native PAGE; pH and temperature not given; recombinant protein; protein details: N-terminal GST,(His)6; label: 32P; probe letters rebuilt from the primers and the genome; part of a longer molecule

## UGAGGUGCAAUGCACAGCCUUCCUCACAGAGCCAGCCCCCCUCUAUUUAUAUUUGCACUUAUUAUUUAUUAUUUAUUUAUUAUUUAUUUAUUUGCUUAUGAAUGUAUUUAUUUGGAAGGCCGG [TNFa-ARE]
[1]; pH and temperature not given
  binding result: binds
[2]
  binding result: binds

## UCUCCCUCACAAUUUCCACCCCAGACCCUCAUAGUAACAGGAUGAGCCUAGGGAGCCCUUCCUACUCUCUUGAAUACCAUCAAUAAAGUUCGCUGCACCC [GAPDH-3'UTR_A20]
[3]
  binding result: binds

## UGAGGUGCAAUGCACAGCCUUCCUCACAGAGCCAGCCCCCCUCUAUUUAUAUUUGCACUUAUUAUUUAUUAUUUAUUUAUUAUUUAUUUAUUUGCUUAUGAAUGUAUUUAUUUGGAAGGCCGG [TNFa-ARE_A20]
[4]
  binding result: binds
[3]; PABPN1 on the poly(A) tail
  binding result: binds
[1]; TTP on the ARE region, pH and temperature not …
  binding result: binds

For at least one entry, the source does not settle the construct or the ends of the probe. For part of these data: At least one verdict rests on a figure or table, not on a statement of the authors. For part of these data: Tags and fusion partners may be left off the protein sequences shown.
